Reference: paper PMC12307814, “The structure of the Tad pilus alignment complex reveals a periplasmic conduit for pilus extension” (Nature Communications, 2025)
Results are given in words; binding and its absence hold for the method and conditions named.

Key:
[1] = target: RcpC lacking the L3 linker and the β-hairpin region (RcpC_(33-233)) (Pseudomonas aeruginosa) (UniProt Q9HW95); experiment: SEC; single purified protein on Superose 6 Increase 10/300 GL, 50 mM HEPES, 150 mM NaCl, 200 mM arginine, 1 mM TCEP, pH 8.0; both purified
[2] = target: RcpC lacking the L3 linker and the β-hairpin region (RcpC_(33-233)) (Pseudomonas aeruginosa) (UniProt Q9HW95); experiment: SEC-MALS; single purified protein; 50 uL at 2 mg/mL on a WTC 015S5 column, 50 mM HEPES, 150 mM NaCl, 200 mM arginine, 1 mM TCEP, pH 8.0, 0.8 mL/min; both purified

Which results are given for “RcpC lacking the L3 linker and the β-hairpin region (RcpC_(33-233)) (from UniProt Q9HW95 33-233) (domain or fragment)”?
binding [1]: no binding; binding [2]: no binding
